# Assay results

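Malaria parasite (P. falciparum) lines kept in red blood cells; parasite DNA is measured by SYBR Green fluorescence after lysis, 72 h after compound addition.
Each compound was titrated across a series from about 0.000037 to 29 µM.
The number is the fitted AC50, the concentration giving a half-maximal change in signal; a lower value means higher potency, whether the curve shows a decrease or an increase.
Calls follow the curve class and fit quality: every row here is inconclusive, covering signal-raising curves and weak, poorly fitted, partial or highest-dose-only inhibition curves.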

Values are in nM.
All entries here are filed as inconclusive.
Only part of the assay is shown, chiefly results filed as inconclusive.
Potencies fitted to partial, single-point or poorly fitting curves are rough.
Some entries filed as inconclusive have a full curve.

With CCC[C@H]1C[C@H](C(=O)N[C@@H]([C@H]2O[C@@H](SC)[C@@H](O)[C@@H](O)[C@@H]2O)[C@H](C)Cl)N(C)C1 [CP260] the assay gave fitted potency 50.1 nM (inhibitor, full curve). CCC[C@H]1C[C@H](C(=O)N[C@@H]([C@H]2O[C@@H](SC)[C@@H](O)[C@@H](O)[C@@H]2O)[C@H](C)Cl)N(C)C1 [CP215] read fitted potency 53.6 nM (inhibitor, full curve). With CCC[C@H]1C[C@H](C(=O)N[C@@H]([C@H]2O[C@@H](SC)[C@@H](O)[C@@H](O)[C@@H]2O)[C@H](C)Cl)N(C)C1 [3D7] the assay gave fitted potency 223.9 nM (inhibitor, full curve). Result for CCC[C@H]1C[C@H](C(=O)N[C@@H]([C@H]2O[C@@H](SC)[C@@H](O)[C@@H](O)[C@@H]2O)[C@H](C)Cl)N(C)C1 [PC49] was fitted potency 316.2 nM (inhibitor, full curve). CCC[C@H]1C[C@H](C(=O)N[C@@H]([C@H]2O[C@@H](SC)[C@@H](O)[C@@H](O)[C@@H]2O)[C@H](C)Cl)N(C)C1 [CP192] gave fitted potency 106.9 nM (inhibitor, full curve). CNC(=O)c1cc(Oc2ccc(NC(=O)Nc3ccc(Cl)c(C(F)(F)F)c3)cc2)ccn1 [CP268] read fitted potency 19011 nM (inhibitor, single point). CNC(=O)c1cc(Oc2ccc(NC(=O)Nc3ccc(Cl)c(C(F)(F)F)c3)cc2)ccn1 [CP201] read fitted potency 15101 nM (inhibitor, single point). For CNC(=O)c1cc(Oc2ccc(NC(=O)Nc3ccc(Cl)c(C(F)(F)F)c3)cc2)ccn1 [CP286] the result was fitted potency 11220 nM (inhibitor, single point).

Result for CNC(=O)c1cc(Oc2ccc(NC(=O)Nc3ccc(Cl)c(C(F)(F)F)c3)cc2)ccn1 [ATS189] was fitted potency 15848 nM (inhibitor, single point). For CNC(=O)c1cc(Oc2ccc(NC(=O)Nc3ccc(Cl)c(C(F)(F)F)c3)cc2)ccn1 [CP203] the result was fitted potency 15101 nM (inhibitor, partial curve, poor fit). With CNC(=O)c1cc(Oc2ccc(NC(=O)Nc3ccc(Cl)c(C(F)(F)F)c3)cc2)ccn1 [CP217] the assay gave fitted potency 15848 nM (inhibitor, single point). With CNC(=O)c1cc(Oc2ccc(NC(=O)Nc3ccc(Cl)c(C(F)(F)F)c3)cc2)ccn1 [CP185] the assay gave fitted potency 10000 nM (inhibitor, single point). CNC(=O)c1cc(Oc2ccc(NC(=O)Nc3ccc(Cl)c(C(F)(F)F)c3)cc2)ccn1 [CP252] read fitted potency 17782 nM (inhibitor, single point). For CNC(=O)c1cc(Oc2ccc(NC(=O)Nc3ccc(Cl)c(C(F)(F)F)c3)cc2)ccn1 [CP335] the result was fitted potency 16944 nM (inhibitor, single point).

2 of the entries, repeated:

Compound	condition	fitted potency (nM)	curve as filed
CCC[C@H]1C[C@H](C(=O)N[C@@H]([C@H]2O[C@@H](SC)[C@@H](O)[C@@H](O)[C@@H]2O)[C@H](C)Cl)N(C)C1	CP215	53.6	inhibitor, full curve
CNC(=O)c1cc(Oc2ccc(NC(=O)Nc3ccc(Cl)c(C(F)(F)F)c3)cc2)ccn1	CP335	16944	inhibitor, single point

The results are deposited in PubChem (AID504749; NCATS, 2011).